# According to PMC7819943, “Rice protein-binding microarrays: a tool to detect cis-acting elements near promoter regions in rice”:
# This is one part of the list.
# Molecular target: T1, OsSMF1 (Oryza sativa, UniProt Q6ZLB0 1-436)
# T1 sequence: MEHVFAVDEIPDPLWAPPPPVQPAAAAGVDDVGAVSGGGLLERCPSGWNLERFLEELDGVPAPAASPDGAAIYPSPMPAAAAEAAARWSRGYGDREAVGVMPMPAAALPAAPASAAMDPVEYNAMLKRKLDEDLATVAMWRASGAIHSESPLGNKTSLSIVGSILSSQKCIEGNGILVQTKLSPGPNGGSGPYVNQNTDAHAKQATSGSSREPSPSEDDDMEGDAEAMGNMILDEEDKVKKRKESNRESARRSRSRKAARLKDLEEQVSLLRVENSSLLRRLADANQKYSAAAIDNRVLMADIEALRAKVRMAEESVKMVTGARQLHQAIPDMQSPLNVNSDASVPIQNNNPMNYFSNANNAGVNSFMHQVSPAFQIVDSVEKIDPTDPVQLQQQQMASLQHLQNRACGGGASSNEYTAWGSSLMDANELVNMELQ
# Test: protein-binding microarray (RPBM); PBS, 2% BSA, 51.3 ng/ul salmon testes DNA, 50 uM zinc acetate, 200 nM TF, 25 C, 1 h; high values mean tight binding
# Conditions: protein: recombinant; tags: N-terminal polyhistidine and DsRed monomer fusion (pET32a); chain copies: 2; label: CyDye5-dUTP incorporated in the synthesized complementary strand; 3' TTTTT single-stranded linker to array surface; dsDNA, one strand shown
# In short: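 For the binding signal, per-feature fluorescence intensity was read in arbitrary units on an Axon 4000B scanner. Before scanning, a 2% BSA-blocked custom Agilent array made double-stranded with Cy5-dUTP was washed after 1 h at 25 °C with 200 nM protein and 50 µM zinc acetate. The proteins were Ni–NTA-purified transcription factors with N-terminal polyhistidine and DsRed fusions, expressed in E. coli BL21-CodonPlus.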
row,Sequence,binding signal
1,TTGATAATTACTCTTACGTCCCTCACCCTATGCTCCTGTGCGGAGTCACCTAGTGCAG,3440 fluorescence intensity (a.u.)
2,GCTATATGTTAGCCACCGCCACCGGACGAGACGACGGATCCGGAGTCACCTAGTGCAG,3160 fluorescence intensity (a.u.)
3,CATAATCTGATGTGTTATTATTGATCTATGTAGAGGACACCGGAGTCACCTAGTGCAG,4730 fluorescence intensity (a.u.)
4,TGCCACTAGAACCCGTTCGTACAACGCATTCACTGCCACACGGAGTCACCTAGTGCAG,3400 fluorescence intensity (a.u.)
5,CACAGGAGGGTGGCGAGAGGGAGAGTGTGAGGAGCTGAGACGGAGTCACCTAGTGCAG,3500 fluorescence intensity (a.u.)
6,CCCAATCGCCACCGCGCCCGTACGTCTATACAGCGTGGCACGGAGTCACCTAGTGCAG,4840 fluorescence intensity (a.u.)
7,GGCGTGATGTGGGCGGCACGCACGCACGCACGCCCTCGCGCGGAGTCACCTAGTGCAG,3840 fluorescence intensity (a.u.)
8,CTAGAGAAGAAGAGAAGTGTGTCTGACAGTGGGCCCAACCCGGAGTCACCTAGTGCAG,3210 fluorescence intensity (a.u.)
9,ATTTCGCCAACCTCCCGGCTCCCGCTGCCAGTTTCGATTTCGGAGTCACCTAGTGCAG,3420 fluorescence intensity (a.u.)
10,ACAAACTTTGTATACGTGTATAAAATATTGATATATGTACCGGAGTCACCTAGTGCAG,4410 fluorescence intensity (a.u.)
11,TTTGAGAGCAATCGGCCACCCCAACTGCCTGCCAGTGAATCGGAGTCACCTAGTGCAG,21500 fluorescence intensity (a.u.)
12,GGCTCCCCTGCTGCTAATACTCTGCGTCACTGCCGCTTGACGGAGTCACCTAGTGCAG,5590 fluorescence intensity (a.u.)
13,TGAACTTAGACAACTCAGCGCCATATCAACTGACGCTGAACGGAGTCACCTAGTGCAG,3450 fluorescence intensity (a.u.)
14,ACCTGTGGCGGGTGTCGACGGTGCACCGCGTGGAGGAGCTCGGAGTCACCTAGTGCAG,3140 fluorescence intensity (a.u.)
15,AGGAATCGAGGACAAGCCGGCGGTGGGCAAGGAGACGTGGCGGAGTCACCTAGTGCAG,4430 fluorescence intensity (a.u.)
16,AAGCTGCTCGACGACGACTGAACTGAGTGTGACTGAGTCACGGAGTCACCTAGTGCAG,4030 fluorescence intensity (a.u.)
17,CTTGATTACCGTCATTAGTCAAAATCGCAGTTCACATCATCGGAGTCACCTAGTGCAG,3440 fluorescence intensity (a.u.)
18,AAAACTGGCCCGGTCTATCATGACGCACAGCCTGCTCAGCCGGAGTCACCTAGTGCAG,5680 fluorescence intensity (a.u.)
19,TTAGGCCGACGTCCTCCTCGCAGCCACGCGCTACGCCTCCCGGAGTCACCTAGTGCAG,3730 fluorescence intensity (a.u.)
20,TTTGGACACTTTCCATGTGCCATGACTCATGGCCAACTTTCGGAGTCACCTAGTGCAG,9010 fluorescence intensity (a.u.)
21,ATTAATGGCAAAAGTTCACAAACTTTGACTTTTGAAACGCCGGAGTCACCTAGTGCAG,22800 fluorescence intensity (a.u.)
22,TTCTACATTACACCTAGTGGCTTTGTCAGCAATCAGCATACGGAGTCACCTAGTGCAG,3440 fluorescence intensity (a.u.)
23,TGTCGTAGGCGGCGGCGGGAGGCGCCACGTGTCCGCCTCCCGGAGTCACCTAGTGCAG,16700 fluorescence intensity (a.u.)
24,GGAAATACATGACGTCATAACTGCTAACCACAATTCCCTCCGGAGTCACCTAGTGCAG,10400 fluorescence intensity (a.u.)
25,GATCGATCGAGCTGAGCTAACATCTCACATCACCATATATCGGAGTCACCTAGTGCAG,3360 fluorescence intensity (a.u.)
26,ATTACTACCAGCAGTATATCCTACTATCAGCGCACTGCACCGGAGTCACCTAGTGCAG,3270 fluorescence intensity (a.u.)
27,TTACGAGACGAATCTTTTAAGACTAATTGCTCCATGATTTCGGAGTCACCTAGTGCAG,3280 fluorescence intensity (a.u.)

# In a second layout: entries from further up.
row	Sequence	binding signal
6	CCCAATCGCCACCGCGCCCGTACGTCTATACAGCGTGGCACGGAGTCACCTAGTGCAG	4840 fluorescence intensity (a.u.)
14	ACCTGTGGCGGGTGTCGACGGTGCACCGCGTGGAGGAGCTCGGAGTCACCTAGTGCAG	3140 fluorescence intensity (a.u.)

# Next part:

row,Sequence,binding signal
1,TACCATGTCACTGACTTTGTTACCTGTCTACGATTTGCCACGGAGTCACCTAGTGCAG,3180 fluorescence intensity (a.u.)
2,CATTACTCACGCCTCTTTGCCGACATATGGCCACGCCCCTCGGAGTCACCTAGTGCAG,3730 fluorescence intensity (a.u.)
3,GAGAGAGAGAGAGAGTCCACGCATCCCGCGCGCCTCCTTTCGGAGTCACCTAGTGCAG,4620 fluorescence intensity (a.u.)
4,TTAGTGTCTAAAGATAGGGACTAAAGTTAAGTCACTGATGCGGAGTCACCTAGTGCAG,5610 fluorescence intensity (a.u.)
5,AGGTCCTCGTGGACATCGTCGTGTTGTCGGGCGCGTGTTCCGGAGTCACCTAGTGCAG,32500 fluorescence intensity (a.u.)
6,GAGAGAGGAGAAAGGGAGAGGAGAGGGTGATGACGTGGCCCGGAGTCACCTAGTGCAG,27200 fluorescence intensity (a.u.)
7,GGTTTTAACCCCGATTTCGTTCGACGTGGCGGCTGAGTCACGGAGTCACCTAGTGCAG,10800 fluorescence intensity (a.u.)
8,CTCCCCACCTCCGCCTCCGCCTCCGATCCGCCGCCGCCGTCGGAGTCACCTAGTGCAG,3600 fluorescence intensity (a.u.)
9,TCAAATATTGTAAGAGGATGATCTGTAAGTGATATGTATTCGGAGTCACCTAGTGCAG,3440 fluorescence intensity (a.u.)
10,CCGGTCGCAGCTGACGTACGCAGCAGTAGGTCGCCGTCACCGGAGTCACCTAGTGCAG,7100 fluorescence intensity (a.u.)
11,ATAAACCAACAGCGCGAGGCAAGGCGAAGACGAGAGAGTGCGGAGTCACCTAGTGCAG,4000 fluorescence intensity (a.u.)
12,CTTGTTGGGCCATGCCTGGGCTGTGAGTGCGGCACGTGGGCGGAGTCACCTAGTGCAG,3360 fluorescence intensity (a.u.)
13,AAACAGAGGGGAAGAGAGAGGATCGTCGTCGACGATGATGCGGAGTCACCTAGTGCAG,3200 fluorescence intensity (a.u.)
14,ATGCATGCGTGTGCAGAGTTTGCGTTTCTGACGTGATATACGGAGTCACCTAGTGCAG,9440 fluorescence intensity (a.u.)
15,AAGTATACAATTCATAAAATGTACTAGATTTGACCAACACCGGAGTCACCTAGTGCAG,38100 fluorescence intensity (a.u.)
16,TATTGTCTATTGCAGTGAGGATTGGCACGCTATATGTCATCGGAGTCACCTAGTGCAG,15500 fluorescence intensity (a.u.)
17,ATAGCGCCGGCGATACTGACTCCACGTAGGTTTGAGGAGTCGGAGTCACCTAGTGCAG,7280 fluorescence intensity (a.u.)
18,AGCCAGCTCGTGACTAGTACACGCGGTGGCGAAGACAAAACGGAGTCACCTAGTGCAG,3820 fluorescence intensity (a.u.)
19,ACTACTTTATTTACTGCGTCACATAAAGACCAAGCGCCACCGGAGTCACCTAGTGCAG,3280 fluorescence intensity (a.u.)
20,CAACTCATGGATCTCGCCCACTGCTGATTTTGCATTCGGTCGGAGTCACCTAGTGCAG,3240 fluorescence intensity (a.u.)
21,TCCTCTTCACGGCCCAAGATCTGCTGCTGCTGCGTGTCCCCGGAGTCACCTAGTGCAG,3670 fluorescence intensity (a.u.)
22,TGGCGCACATGACACGCTGGGCCGACGACGTTGACCCCAGCGGAGTCACCTAGTGCAG,3600 fluorescence intensity (a.u.)
23,GGCTGGAAATCCACTAGTAATAGACCACCCCAAGTCCATCCGGAGTCACCTAGTGCAG,37400 fluorescence intensity (a.u.)
24,TACGAGCCGCCGCTGATGGCCGTCATCATGTCGCCCAGGTCGGAGTCACCTAGTGCAG,3500 fluorescence intensity (a.u.)
25,GGATTTGCTAGGGATTACCTCCTTGATGACACGAATAGCTCGGAGTCACCTAGTGCAG,4140 fluorescence intensity (a.u.)
26,AATCCACATCACTCCCTCACACTCTCACTCGTAGCGAAGCCGGAGTCACCTAGTGCAG,5470 fluorescence intensity (a.u.)
27,AGCACTATACCATATTGTCTACACGTGACACTAATAGGTTCGGAGTCACCTAGTGCAG,4290 fluorescence intensity (a.u.)
